{"source": "PubChem BioAssay AID540276", "about": "(National Center for Advancing Translational Sciences (NCATS), 2011)", "note": "About 5,400 (1.8%) of roughly 300,000 compounds were called active. The shares of active, inactive and inconclusive entries below differ from those in the screen. The call rests on the fitted dose curve; tested in HEK293 cells. Potencies of inconclusive entries are doubtful fits and often do not repeat. On the % scale 0 is the no-effect control and ±100 the full control effect; potency means the concentration at half of the fitted maximal effect."}
{"experiment": "qHTS for inhibitors of binding or entry into cells for Marburg Virus", "conditions": "Marburg virus pseudotyped entry inhibition, cell reporter; activity change, negative = inhibition: at 37.8 µM (top of the series) unless noted"}
{"smiles": "O=C(NCC(c1cccs1)N1CCOCC1)c1ccccc1NS(=O)(=O)c1ccc(Cl)c([N+](=O)[O-])c1", "note": "(stereo not given)", "activity change, negative = inhibition": "inactive: 0%"}
{"smiles": "Cc1ccc(S(=O)(=O)N2CCN(C(=O)CCC(=O)NCc3cccc(C(F)(F)F)c3)CC2)cc1", "Potency": "inconclusive: 35.5 µM [inhibitor, single point]"}
{"smiles": "Cc1ccc2c(c1)C(c1ccc(F)cc1)N(C(=O)c1ccc(S(=O)(=O)N3CCCCC3)cc1)CC(=O)N2", "note": "(stereo not given)", "Potency": "inconclusive: 35.5 µM [inhibitor, single point]"}
{"smiles": "Nc1c(N(CCO)C(=O)c2ccccc2OCc2ccccc2Cl)c(=O)[nH]c(=O)n1Cc1ccccc1", "activity change, negative = inhibition": "inactive: -4.09%"}
{"smiles": "Nc1cc(Oc2ccc(Cl)cc2Cl)nc(N)n1", "Potency": "inconclusive: 3.98 µM [inhibitor, full curve]"}
{"smiles": "CSc1nnc(-c2cc3c(-c4ccccc4)nn(C)c3s2)n1C", "Potency": "inconclusive: 0.316 µM [activator, partial curve, poor fit]"}
{"smiles": "COC(c1ccccc1)c1nnc(CCC(=O)N2CCCCCCC2)o1", "note": "(stereo not given)", "Potency": "inconclusive: 6.31 µM [activator, single point]"}
{"smiles": "COc1ccc(NC(=O)c2cc(=O)c3ccccc3o2)cc1Cl", "Potency": "inconclusive: 17.8 µM [inhibitor, partial curve, poor fit]"}
{"smiles": "COc1ccc(OC)c(C(=O)COC(=O)c2cc(C)oc2C)c1", "activity change, negative = inhibition": "inactive: -12.5% [at 46.1 µM]"}
{"smiles": "O=C(CSc1nc2ccccc2c(=O)[nH]1)N1CCCCCC1", "Potency": "inconclusive: 12.6 µM [inhibitor, single point]"}
{"smiles": "CC1CCCC(C)N1S(=O)(=O)c1ccc(NC(=O)CNC2CCCC2)cc1", "note": "(stereo not given)", "Potency": "inconclusive: 11.2 µM [inhibitor, single point]"}
{"smiles": "Nc1nn(-c2cccc(F)n2)cc1-c1ccccc1", "Potency": "inconclusive: 11.2 µM [inhibitor, single point]"}
{"smiles": "COc1ccc(-c2nc3ccccc3s2)cc1NC(=O)c1ccccc1F", "activity change, negative = inhibition": "inactive: -25.8% [at 46.1 µM]"}
{"smiles": "CCC(CC)NC(=O)Nc1ccc(F)c(Cl)c1", "activity change, negative = inhibition": "inactive: -2.43%"}
{"smiles": "COc1cccc(N2CCN(Cc3cccnc3)CC2)c1", "Potency": "inconclusive: 2.59 µM [inhibitor, partial curve]"}
{"smiles": "Brc1ccc(-c2nnc(-c3ccccc3)o2)o1", "Potency": "inconclusive: 29.1 µM [inhibitor, single point]"}
{"smiles": "CCOC(=O)Cc1c(C)nc2cc(-c3ccc(C(C)(C)C)cc3)[nH]n2c1=O", "Potency": "inconclusive: 32.6 µM [activator, single point]"}
{"smiles": "CC(Sc1ccccn1)C(=O)Nc1ccccc1", "note": "(stereo not given)", "activity change, negative = inhibition": "inactive: 17.2%"}
{"smiles": "C=CCN1N=C(/C=C/c2ccc(C)cc2)CCC1=O", "Potency": "inconclusive: 0.794 µM [activator, full curve, poor fit]"}
{"smiles": "Cc1cc(C)c2sc(NNC(=O)C3COc4ccccc4O3)nc2c1", "note": "(stereo not given)", "activity change, negative = inhibition": "inactive: 5.72%"}
{"smiles": "CCCc1ccc(O)c(N=Cc2cc(Br)cc(OCC)c2O)c1", "Potency": "inconclusive: 5.62 µM [inhibitor, single point]"}
{"smiles": "Cc1oc(-c2ccccc2Cl)nc1CS(=O)(=O)CC(=O)NCc1ccc(F)cc1", "activity change, negative = inhibition": "inactive: -12.8% [at 46.1 µM]"}
{"smiles": "COc1ccc(C2=CCCCCC2)c(OC)c1OC", "activity change, negative = inhibition": "inactive: 12.4% [at 46.1 µM]"}
{"smiles": "O=C(C1CCCCC1)N1CCCn2c1nc1ccccc12", "activity change, negative = inhibition": "inactive: 21.5%"}
{"smiles": "COc1ccc(-n2nc(C(=O)Nc3cc(C)ccn3)c3c4ccccc4n(C)c3c2=O)cc1", "activity change, negative = inhibition": "inactive: 10.2% [at 46.1 µM]"}
{"smiles": "O=C(CCC1CCCN(Cc2cccc3c2OCO3)C1)NCc1ccc(F)c(F)c1", "note": "(stereo not given)", "Potency": "inconclusive: 11.2 µM [inhibitor, partial curve, poor fit]"}
{"smiles": "CSCCC(NC(=O)c1ccccc1C)C(=O)O", "note": "(stereo not given)", "Potency": "inconclusive: 14.1 µM [activator, single point]"}
{"smiles": "O=S(=O)(c1ccccc1)N1N=C(c2ccccc2)CC1c1ccccc1", "note": "(stereo not given)", "Potency": "inconclusive: 3.55 µM [inhibitor, partial curve, poor fit]"}
{"smiles": "Cc1ccc(C2Nc3ccc4ccccc4c3C3=C2C(=O)CC(C)(C)C3)o1", "note": "(stereo not given)", "Potency": "inconclusive: 18.3 µM [inhibitor, single point]"}
{"smiles": "O=C(CCCSc1nnc(Nc2ccccc2F)s1)N1CCOCC1", "Potency": "inconclusive: 5.62 µM [activator, single point]"}
{"smiles": "CCOC(=O)C1CCN(Cc2c(O)c3ccccc3oc2=O)CC1", "Potency": "inconclusive: 10 µM [inhibitor, partial curve]"}
{"smiles": "O=C(CSC1CN(C(c2ccccc2)c2ccccc2)C1)N/N=C/c1ccccc1", "Potency": "inconclusive: 31.6 µM [inhibitor, single point]"}
{"smiles": "CCn1c2ccccc2c2nnc(SCC(=O)Nc3ccc4c(c3)OCO4)nc21", "Potency": "inconclusive: 29.1 µM [inhibitor, single point]"}
{"smiles": "CCOc1ccc(OCC)c(NC(=O)CN2CCN(c3cccc(C)c3C)CC2)c1", "Potency": "inconclusive: 32.6 µM [inhibitor, single point]"}
{"smiles": "CCc1nn(CC(=O)N2CCCCC2)c(=O)c2cc3occc3n12", "activity change, negative = inhibition": "inactive: 2.22% [at 46.1 µM]"}
{"smiles": "CCOC(=O)C1=C(CS(=O)(=O)c2ccc(F)c(C)c2)NC(=O)NC1c1ccccc1OC", "note": "(stereo not given)", "activity change, negative = inhibition": "inactive: -0.757% [at 46.1 µM]"}
{"smiles": "CCCc1nnc(NC(=O)c2nc(SCC)ncc2Cl)s1", "activity change, negative = inhibition": "inactive: -15.1% [at 46.1 µM]"}
{"smiles": "Cc1cc(C)c(C#N)c(=N)o1", "activity change, negative = inhibition": "inactive: 1.25%"}
{"smiles": "Cc1ccc(NC(=O)Nc2ccc3c(c2)nc(C)n3C)cc1", "Potency": "active: 11.2 µM"}
{"smiles": "CCn1cc([N+](=O)[O-])c(C(=O)N2N=C(c3cccc4ccccc34)CC2c2ccccc2O)n1", "note": "(stereo not given)", "Potency": "inconclusive: 35.5 µM [inhibitor, single point]"}
{"smiles": "COc1ccc(NC(=O)CN(C)C(=O)c2cc(-c3ccc(OC)cc3)nc3ccccc23)cc1", "Potency": "inconclusive: 20 µM [inhibitor, single point]"}
{"smiles": "COc1ccc(C(=O)Nc2cccc(-c3nnc(-c4ccco4)o3)c2)cc1", "Potency": "inconclusive: 23.1 µM [inhibitor, partial curve, poor fit]"}
{"smiles": "O=C(CNC(=O)c1ccccn1)N=Nc1c(O)[nH]c2ccccc12", "Potency": "inconclusive: 2.51 µM [activator, partial curve, poor fit]"}
{"smiles": "Cc1c(-c2nc(-c3ccc(C(C)(C)C)cc3)no2)n(C)oc1=O", "Potency": "inconclusive: 7.94 µM [activator, partial curve, poor fit]"}
{"smiles": "CC(=O)Oc1cc(OC(C)=O)c2c(=O)c(-c3ccc4c(c3)OCCCO4)c(C)oc2c1", "Potency": "inconclusive: 31.6 µM [inhibitor, partial curve, poor fit]"}
